Measured values from paper PMC7216731.
No constants are given. Whether binding was seen depends on the method and setting. Some binding calls cover weakened binding; strength is not graded here.

Protein sequences, listed by entry. Tags and fused reporters are not part of them. Residues count along the entry.
UniProt P13128, residues 25-529: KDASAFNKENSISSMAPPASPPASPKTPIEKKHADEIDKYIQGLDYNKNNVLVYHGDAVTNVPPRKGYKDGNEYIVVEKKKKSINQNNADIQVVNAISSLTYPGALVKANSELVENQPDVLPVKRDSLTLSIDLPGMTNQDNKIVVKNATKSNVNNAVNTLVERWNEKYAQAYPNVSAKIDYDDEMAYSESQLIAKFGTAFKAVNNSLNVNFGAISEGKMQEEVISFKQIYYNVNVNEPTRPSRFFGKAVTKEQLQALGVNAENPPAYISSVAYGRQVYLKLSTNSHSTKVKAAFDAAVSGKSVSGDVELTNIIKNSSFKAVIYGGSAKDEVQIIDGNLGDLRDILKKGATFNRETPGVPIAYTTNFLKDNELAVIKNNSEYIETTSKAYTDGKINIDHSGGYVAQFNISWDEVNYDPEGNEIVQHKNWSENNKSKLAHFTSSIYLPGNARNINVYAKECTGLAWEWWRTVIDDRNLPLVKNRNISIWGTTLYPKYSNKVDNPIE

Target: Listeriolysin O (Listeria monocytogenes) (UniProt P13128)
Assay: oligomer bands on SDS-PAGE without reducing agent, Western blot with anti-LLO; purified LLO in acidic PBS (pH 5.5), oligomerization induced with potassium chloride (high salt), sheep erythrocytes added, 5 min on ice, boiled in loading buffer lacking 2-hydroxy-1-ethanethiol; with or without morin (64 ug/mL), which decreased the oligomers; both purified

Substance: Listeriolysin O (from UniProt P13128 25-529)
- binding: binds
